Here are results for 1 molecule from US20160130340A1 (ALDERBIO, published 2016).

By UniProt entry, the sequences of proteins in these tests, tags left out. Where a name states a change or a piece, a line headed by the entry shows the natural chain unless it says otherwise.
UniProt P05231: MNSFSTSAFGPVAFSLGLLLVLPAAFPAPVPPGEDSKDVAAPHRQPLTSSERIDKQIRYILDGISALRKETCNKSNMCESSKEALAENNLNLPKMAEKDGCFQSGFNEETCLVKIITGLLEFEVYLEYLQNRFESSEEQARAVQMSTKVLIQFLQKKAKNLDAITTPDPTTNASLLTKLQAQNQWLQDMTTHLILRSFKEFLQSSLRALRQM

The target of this test is Human IL-6 (human, UniProt P05231 30-212). Put plainly: Octet bio-layer interferometry; antibody captured on anti-human IgG Fc sensor, then IL-6, then soluble IL-6R1, then gp130 in the presence of IL-6R1; blocked ligands: IL-6R1 and gp130. As to the method:
To determine the antibody mechanism of action, mechanistic studies were performed using bio-layer interferometry with an Octet QK instrument (ForteBio; Menlo Park, Calif.). Studies were performed in two different configurations. […] Binding is monitored as an increase in signal.
In the second orientation, the antibody was bound to a biosensor coated with an anti-human IgG1 Fc-specific reagent (ForteBio part number 18-5001). […] All studies were performed in a 200 μL final volume, at 30° C. and 1000 rpm. For these studies, all proteins were diluted using ForteBio's sample diluent buffer (part number 18-5028).
In general terms: Biolayer interferometry detects binding as a change in optical thickness at a sensor tip.

No constants are given. Whether binding was seen depends on the method and setting. Some binding calls cover weakened binding; strength is not graded here.

B1: Ab7 (antibody, V domains shown)
VH: QSLEESGGRLVTPGTPLTLTCTASGFSLSNYYMTWVRQAPGKGLEWIGMIYGSDETAYANWAIGRFTISKTSTTVDLKMTSLTAADTATYFCARDDSSDWDAKFNLWGQGTLVTVSS
VL: AYDMTQTPASVSAAVGGTVTIKCQASQSINNELSWYQQKSGQRPKLLIYRASTLASGVSSRFKGSGSGTEFTLTISDLECADAATYYCQQGYSLRNIDNAFGGGTEVVVKR
Consider B1, for which the binding entry was “binds”.
